Some entries share one result that the patent states for a list of compounds.
What was measured:
Assay type in all cases: in vivo
[1] = tested on: diamondback moth (Plutella xylostella); assay: Test A: control of diamondback moth on radish plant, foliar spray; conditions: sprayed at 50 ppm, neonate larvae, 6 days, visually assessed foliage consumed
[2] = tested on: cabbage looper (Trichoplusia ni); assay: Test I: foliar control of cabbage looper on cotton plants; conditions: at 10 ppm or lower rates, treated cotton leaves, third-instar larvae, 4 days
[3] = tested on: tobacco budworm (Heliothis virescens); assay: Test H: foliar control of tobacco budworm on cotton plants; conditions: at 10 ppm or lower rates, treated cotton leaves, third-instar larvae, 4 days
[4] = tested on: beet armyworm (Spodoptera exigua); assay: Test J: foliar control of beet armyworm on soybean plants; conditions: at 10 ppm or lower rates, treated soybean leaves, larvae, 4 days
[5] = tested on: fall armyworm (Spodoptera frugiperda); assay: Test B: control of fall armyworm on corn (maize) plant, foliar spray; conditions: sprayed at 50 ppm, 1-day-old larvae, 6 days, visually rated
[6] = tested on: cotton melon aphid (Aphis gossypii); assay: Test E: control of cotton melon aphid through contact and/or systemic means on cotton plant; conditions: sprayed at 250 ppm, 6 days, visually rated
[7] = tested on: green peach aphid (Myzus persicae); assay: Test C: control of green peach aphid through contact and/or systemic means on radish plant; conditions: sprayed at 250 ppm, 6 days, visually assessed
[8] = tested on: potato leafhopper (Empoasca fabae Harris); assay: Test D: control of potato leafhopper through contact and/or systemic means on Longio bean plant; conditions: sprayed at 250 ppm, adults, 6 days, visually assessed

| Structure (SMILES) | very good to excellent levels of plant protection (feeding damage) [1] [%] | mortality [2] | mortality [3] | mortality [4] | excellent levels of plant protection (feeding damage) [5] [%] | mortality [6] | mortality [7] | mortality [8] |
| --- | --- | --- | --- | --- | --- | --- | --- | --- |
| CNC(=O)c1cc(C#N)cc(C)c1NC(=O)c1cc(Br)nn1-c1ccccc1Cl [Compound 2] | ≤ 20 | at least 80% | at least 80% | at least 80% | ≤ 20 |  |  |  |
| CNC(=O)c1cc(Cl)cc(Cl)c1NC(=O)c1cc(Br)nn1-c1ccccc1Cl [Compound 3] | ≤ 20 | at least 80% | at least 80% | at least 80% | ≤ 20 |  |  |  |
| Cc1cc(Br)cc(C(=O)NC(C)C)c1NC(=O)c1cc(C(F)(F)F)nn1-c1ccccc1F [Compound 4] | ≤ 20 | at least 80% | at least 80% | at least 80% | ≤ 20 |  |  |  |
| Cc1cc(Br)cc(C(=O)NC(C)(C)C)c1NC(=O)c1cc(C(F)(F)F)nn1-c1ccccc1Cl [Compound 5] | ≤ 20 | at least 80% | at least 80% | at least 80% | ≤ 20 |  |  |  |
| CCNC(=O)c1cc(Br)cc(C)c1NC(=O)c1cc(Br)nn1-c1ccccc1Cl [Compound 9] | ≤ 20 | at least 80% | at least 80% | at least 80% | ≤ 20 |  |  |  |
| Cc1cc(Cl)cc(C(=O)NC(C)C)c1NC(=O)c1cc(Cl)nn1-c1ccccc1Cl [Compound 23] | ≤ 20 | at least 80% | at least 80% | at least 80% | ≤ 20 |  |  |  |
| Cc1cc(Br)cc(C(=O)NC(C)C)c1NC(=O)c1cc(Br)nn1-c1c(Cl)cccc1Cl [Compound 24] | ≤ 20 | at least 80% | at least 80% | at least 80% | ≤ 20 |  |  |  |
| CC(C)NC(=O)c1cc(C#N)cc(Br)c1NC(=O)c1cc(Br)nn1-c1ccccc1Cl [Compound 45] | ≤ 20 | at least 80% | at least 80% | at least 80% | ≤ 20 |  |  |  |
| CNC(=O)c1cc(C#N)cc(Cl)c1NC(=O)c1cc(Br)nn1-c1ccccc1Cl [Compound 46] | ≤ 20 | at least 80% | at least 80% | at least 80% | ≤ 20 |  |  |  |
| CC(C)NC(=O)c1cc(C#N)cc(Cl)c1NC(=O)c1cc(Br)nn1-c1ccccc1Cl [Compound 47] | ≤ 20 | at least 80% | at least 80% | at least 80% | ≤ 20 |  |  |  |
| CNC(=O)c1cc(Br)cc(Br)c1NC(=O)c1cc(Br)nn1-c1ccccc1Cl [Compound 49] | ≤ 20 | at least 80% | at least 80% | at least 80% | ≤ 20 | at least 80% |  |  |
| N#CCNC(=O)c1cc(Br)cc(Br)c1NC(=O)c1cc(Br)nn1-c1ccccc1Cl [Compound 51] | ≤ 20 | at least 80% | at least 80% | at least 80% | ≤ 20 |  |  |  |
| CC(C)NC(=O)c1cc(Br)cc(Br)c1NC(=O)c1cc(Br)nn1-c1ccccc1Cl [Compound 65] | ≤ 20 | at least 80% | at least 80% | at least 80% | ≤ 20 |  |  |  |
| Cc1cc(C#N)cc(C(N)=O)c1NC(=O)c1cc(Br)nn1-c1ccccc1Cl [Compound 67] | ≤ 20 |  |  |  | ≤ 20 | at least 80% |  |  |
| C#CCNC(=O)c1cc(Br)cc(Br)c1NC(=O)c1cc(Br)nn1-c1ccccc1Cl [Compound 70] | ≤ 20 | at least 80% | at least 80% | at least 80% | ≤ 20 |  |  |  |
| N#CCNC(=O)c1cc(Cl)cc(Cl)c1NC(=O)c1cc(Br)nn1-c1ccccc1Cl [Compound 81] |  |  |  |  |  | at least 80% |  |  |
| Cc1cc(C#N)cc(C(=O)NC(C)C)c1NC(=O)c1cc(Br)nn1-c1ccc(F)cc1Cl [Compound 102] | ≤ 20 |  |  |  | ≤ 20 | at least 80% |  |  |
| CNC(=O)c1cc(Cl)cc(Cl)c1NC(=O)c1cc(Br)nn1-c1ccc(F)cc1Cl [Compound 105] |  |  |  |  | ≤ 20 | at least 80% |  |  |
| Cc1cc(C#N)cc(C(N)=O)c1NC(=O)c1cc(Br)nn1-c1ccc(F)cc1Cl [Compound 106] |  |  |  |  | ≤ 20 | at least 80% |  |  |
| NC(=O)c1cc(Cl)cc(Cl)c1NC(=O)c1cc(Br)nn1-c1ccc(F)cc1Cl [Compound 107] |  |  |  |  | ≤ 20 | at least 80% |  |  |
| Cc1cc(C#N)cc(C(N)=O)c1NC(=O)c1cc(Cl)nn1-c1ccccc1Cl [Compound 109] |  |  |  |  | ≤ 20 | at least 80% |  |  |
| Cc1cc(C#N)cc(C(N)=O)c1NC(=O)c1cc(C(F)(F)F)nn1-c1c(Cl)cc(Cl)cc1Cl [Compound 118] |  |  |  |  |  |  | at least 80% | at least 80% |
| NC(=O)c1cc(Cl)cc(Cl)c1NC(=O)c1cc(Cl)nn1-c1ccc(F)cc1Cl [Compound 130] |  |  |  |  | ≤ 20 | at least 80% |  |  |
| Cc1cc(C#N)cc(C(N)=O)c1NC(=O)c1cc(Cl)nn1-c1ccc(F)cc1Cl [Compound 131] |  |  |  |  | ≤ 20 | at least 80% |  |  |
| CNC(=O)c1cc(C#N)cc(C)c1NC(=O)c1cc(Cl)nn1-c1ccc(F)cc1Cl [Compound 132] |  |  |  |  | ≤ 20 | at least 80% |  |  |

From US20070184018A1, “Anthranilamide insecticides” (priority 2004, published 2007)
